{"sequences": {"note": "By UniProt entry, the sequences of proteins in these tests, tags left out.", "UniProt Q0JBA9, entry or part of it": "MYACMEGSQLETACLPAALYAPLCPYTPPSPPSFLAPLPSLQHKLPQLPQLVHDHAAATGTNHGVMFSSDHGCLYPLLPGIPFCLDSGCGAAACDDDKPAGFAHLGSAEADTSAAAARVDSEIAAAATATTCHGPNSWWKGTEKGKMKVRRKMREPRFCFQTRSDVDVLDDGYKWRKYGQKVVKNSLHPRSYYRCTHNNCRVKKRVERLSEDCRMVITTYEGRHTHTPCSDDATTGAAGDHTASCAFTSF"}, "source": "paper PMC7819943", "about": "“Rice protein-binding microarrays: a tool to detect cis-acting elements near promoter regions in rice”", "note": "The list shows a part of the results."}
{"biological_target": "OsWRKY34 (Oryza sativa, UniProt Q0JBA9 1-250)", "assay": "protein-binding microarray (RPBM); PBS, 2% BSA, 51.3 ng/ul salmon testes DNA, 50 uM zinc acetate, 200 nM TF, 25 C, 1 h; high values mean tight binding", "conditions": "protein: recombinant; tags: N-terminal polyhistidine and DsRed monomer fusion (pET32a); label: CyDye5-dUTP incorporated in the synthesized complementary strand; 3' TTTTT single-stranded linker to array surface; dsDNA, one strand shown", "outline": "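The binding signal for each feature is its fluorescence intensity in arbitrary units. An Axon 4000B scanner was used to read a custom Agilent array that had been made double-stranded with Cy5-dUTP primer extension, blocked with 2% BSA, incubated at 25 °C for 1 h with 200 nM protein in PBS, 2% BSA, salmon testes DNA and 50 µM zinc acetate, and washed. The protein was an N-terminal polyhistidine–DsRed transcription factor fusion from E. coli BL21-CodonPlus, purified on Ni–NTA.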"}
{"sequence": "TCGATCGACCTCTGCTGCTGCCTCGCTGTCCTCTGCTACGCGGAGTCACCTAGTGCAG", "binding signal": "10300 fluorescence intensity (a.u.)"}
{"sequence": "CATTTGATTTTGATTTGATCGATACCATTCCGCTTTCACCCGGAGTCACCTAGTGCAG", "binding signal": "10900 fluorescence intensity (a.u.)"}
{"sequence": "ACGCCACCGTACGCCGTTGTTTGTTGCGCAGTGCCTGCCCCGGAGTCACCTAGTGCAG", "binding signal": "9840 fluorescence intensity (a.u.)"}
{"sequence": "ATCAAAACGCTGGTCATTCTGTCTACTCCATCCGACCCCACGGAGTCACCTAGTGCAG", "binding signal": "8500 fluorescence intensity (a.u.)"}
{"sequence": "AAGGAGAGGGGCCGCGTGGGGATGGGAAGTGCAATATTTGCGGAGTCACCTAGTGCAG", "binding signal": "11300 fluorescence intensity (a.u.)"}
{"sequence": "CCGTCGCACTCAACGCTCTGTTTCACACACGCACGCACCCCGGAGTCACCTAGTGCAG", "binding signal": "8400 fluorescence intensity (a.u.)"}
{"sequence": "TTAATACTTACTACTTGTCTGCTTTGAGTTTTTTGTTTAACGGAGTCACCTAGTGCAG", "binding signal": "9060 fluorescence intensity (a.u.)"}
{"sequence": "GATTTTGAGTTTTTGTTTGCAACGTTTGACCACTCGTCTTCGGAGTCACCTAGTGCAG", "binding signal": "9270 fluorescence intensity (a.u.)"}
{"sequence": "GTCTCGCCGCGCACACGTCGCTCTCACTGGCTTAGCTGAGCGGAGTCACCTAGTGCAG", "binding signal": "8510 fluorescence intensity (a.u.)"}
{"sequence": "TTGGCAATAATCACACCAATCATATCACAGTTGTCGTTGACGGAGTCACCTAGTGCAG", "binding signal": "8730 fluorescence intensity (a.u.)"}
{"sequence": "CGCACATGGTCGTGGCGGCGGCGGAGGTGGTGGTGGTGCGCGGAGTCACCTAGTGCAG", "binding signal": "8650 fluorescence intensity (a.u.)"}
{"sequence": "CGAAGGCTCATAAGGTTCCCTATTTTTTTTTTTTATCTCTCGGAGTCACCTAGTGCAG", "binding signal": "8760 fluorescence intensity (a.u.)"}
{"sequence": "AACACAGGCACTTTTTTCTCGTACCGACAAATTTGATTTCCGGAGTCACCTAGTGCAG", "binding signal": "8540 fluorescence intensity (a.u.)"}
{"sequence": "GTATTGTGGTTAGGGTTTTATCTCGACCTGCGTCTTTTTACGGAGTCACCTAGTGCAG", "binding signal": "13100 fluorescence intensity (a.u.)"}
{"sequence": "CCATCTTCCATCGTGCTCCCATCCAGGCGTTCGCGTCGTCCGGAGTCACCTAGTGCAG", "binding signal": "10500 fluorescence intensity (a.u.)"}
{"sequence": "ATCTCCTTTTTTTTTATCCTCCCAGCTATTAAATAGCCCTCGGAGTCACCTAGTGCAG", "binding signal": "8520 fluorescence intensity (a.u.)"}
{"sequence": "CACATGAGCTCCATAAGATCTTCCCACTTGATCTCCACATCGGAGTCACCTAGTGCAG", "binding signal": "10100 fluorescence intensity (a.u.)"}
{"sequence": "TTTTGTCATGTTGTAGGTACTCACCGATATGTGTTTCTTCCGGAGTCACCTAGTGCAG", "binding signal": "8390 fluorescence intensity (a.u.)"}
{"sequence": "CCCTCTATTTCAGTTTAACGAAACATATATATCCTCTATTCGGAGTCACCTAGTGCAG", "binding signal": "8260 fluorescence intensity (a.u.)"}
{"sequence": "GTGTCATTCGATCTCTGCTCGGTTCTACTACTTCTGAGTTCGGAGTCACCTAGTGCAG", "binding signal": "9140 fluorescence intensity (a.u.)"}
{"sequence": "GAGTGCCTTCGCCTATGCTGCGAGATCTTCTATTCGCTCACGGAGTCACCTAGTGCAG", "binding signal": "8740 fluorescence intensity (a.u.)"}
{"sequence": "GCTCTGGTGTAATTGAGATCTTGCAGCACACGACTATCGTCGGAGTCACCTAGTGCAG", "binding signal": "8120 fluorescence intensity (a.u.)"}
{"sequence": "CCCTCCTCCTCGCTTGCACACTTCGTACTCTCTCTAGTCCCGGAGTCACCTAGTGCAG", "binding signal": "8520 fluorescence intensity (a.u.)"}
{"sequence": "ATGTTGGACAAAAAGTCAACGGCGTCATACATCAAAATGTCGGAGTCACCTAGTGCAG", "binding signal": "13900 fluorescence intensity (a.u.)"}
{"sequence": "GCGCCGAGGCCCGCCGCCGCCCGCCATCCGCCGTTGGCCACGGAGTCACCTAGTGCAG", "binding signal": "8440 fluorescence intensity (a.u.)"}
{"sequence": "TTGGTTTTCCAATTTTGTTAACAACGCATAATCGTACTAACGGAGTCACCTAGTGCAG", "binding signal": "8310 fluorescence intensity (a.u.)"}
{"sequence": "TCTTTACTAATTAATTCTCCCTCCATTGGCTCATCACTGACGGAGTCACCTAGTGCAG", "binding signal": "8140 fluorescence intensity (a.u.)"}
{"sequence": "CTTTCTGTTTCATCCGATCTCTCGTCCTAATCCTCCCGATCGGAGTCACCTAGTGCAG", "binding signal": "10100 fluorescence intensity (a.u.)"}
{"sequence": "GACCCATTCGTAACCTTTTCAATCACCTCATGTACCCAGTCGGAGTCACCTAGTGCAG", "binding signal": "8390 fluorescence intensity (a.u.)"}
{"sequence": "AACCTTGTTACTTTCATGCACATTTGCCAGATTTTGATTTCGGAGTCACCTAGTGCAG", "binding signal": "9730 fluorescence intensity (a.u.)"}
{"sequence": "GTGGGTCCCACCATTTTTTAAGCTGACTGGACCGCCACGTCGGAGTCACCTAGTGCAG", "binding signal": "8430 fluorescence intensity (a.u.)"}
{"sequence": "TCGGATTCCAGCACTTGACGACTTAATCTCGATATCTTCTCGGAGTCACCTAGTGCAG", "binding signal": "9350 fluorescence intensity (a.u.)"}
{"sequence": "CATACCCTTCTTAAATGCAAGATCCATGCCGTTGCTGTAACGGAGTCACCTAGTGCAG", "binding signal": "8460 fluorescence intensity (a.u.)"}
{"sequence": "CCGTATTGCTGTTCTAAACGACTTCCTTTACGAGCATGGACGGAGTCACCTAGTGCAG", "binding signal": "8270 fluorescence intensity (a.u.)"}
{"sequence": "GAATACCTTCTGTTTTTGCCTGACTCGAAAGAGAATTGAACGGAGTCACCTAGTGCAG", "binding signal": "8290 fluorescence intensity (a.u.)"}
{"sequence": "AACAAAAAAATTCATGCTAAAACTTGAGCGTTGACCGCTTCGGAGTCACCTAGTGCAG", "binding signal": "9040 fluorescence intensity (a.u.)"}
{"sequence": "CAACCCGTCGCCGCCCTCGCAACCCGCCGCCGCCGCCGGGCGGAGTCACCTAGTGCAG", "binding signal": "8920 fluorescence intensity (a.u.)"}
{"sequence": "AACTATATATTTTGAGTTCCATTTTCTATCAACTCATTTTCGGAGTCACCTAGTGCAG", "binding signal": "12500 fluorescence intensity (a.u.)"}
{"sequence": "ATTTTTTTCTTGGTTACATGGTGGTTGGTGTTCCATTTTCCGGAGTCACCTAGTGCAG", "binding signal": "14800 fluorescence intensity (a.u.)"}
{"sequence": "GTACGGTTATGTGTGTCTGTTTTGAGATGTGAAACTTGGCCGGAGTCACCTAGTGCAG", "binding signal": "8170 fluorescence intensity (a.u.)"}
{"sequence": "CTCTCTTTCTTCCGGCTTCCTCTTCCTCTTCCCTCCTCGCCGGAGTCACCTAGTGCAG", "binding signal": "8910 fluorescence intensity (a.u.)"}
{"sequence": "ACTAATCCCTGACTTCGATTCGATCGTTCTGAGATACAGACGGAGTCACCTAGTGCAG", "binding signal": "11200 fluorescence intensity (a.u.)"}
